Laboratory results: PMC5719983, “The Cryoelectron Microscopy Structure of the Type 1 Chaperone-Usher Pilus Rod” (Structure(London, England:1993), 2017)
No constants are given. Whether binding was seen depends on the method and setting. In cells and extracts the contact can be indirect. Some results given as binding are weak or reduced against the parent protein; the word gives no strength.

Molecular target: FimA of E. coli K12 W3110 in type 1 pili assembled in vivo (for stability studies) (E. coli K12 W3110) (UniProt P04128)
Assay: co-sedimentation; pili assembled in vivo in W3110ΔfimA with pCG1-AC; released at 90°C, precipitated with 0.1 M MgCl2, washed with 1% SDS, pelleted at 186'000 x g; dissociation/unfolding by GdmCl at pH 2.1 followed by far-UV CD

B1: Mature FimA without its natural signal sequence (159 residues), refolded FimA monomer (natural protein)
chain: AATTVNGGTVHFKGEVVNAACAVDAGSVDQTVQLGQVRTASLAQEGATSSAVGFNIQLNDCDTNVASKAAVAFLGTAIDAGHTNVLALQSSAAGSATNVGVQILDRTGAALTLDGATFSSETTLNNGTNTIPFQARYFATGAATPGAANADATFKVQYQ
notes: the N-terminal methionine added for cytoplasmic expression was cleaved off quantitatively (measured 15826.0 Da). numbers count on: the mature protein; also called pili assembled in vitro
binding: binds
